Source: PubChem BioAssay AID180 (DTP/NCI, 2004)
The list is a part of this screen's results and no random one: it gathers some chemical classes. Other doses and runs of a compound may be missing. T/C: endpoint of the treated group in % of that of the vehicle group. Schedules are NCI's codes, read here as Q, the interval in days (D) or hours (H), X, the number of doses. Some T/C values carry the count of animals alive at the toxicity check; without a count or a note in brackets, all were alive then. Some entries hold several experiments; the results are listed from low to high. Some doses have a count of surviving animals in place of a T/C: the source files T/C as zero there, which appears to mark a toxic dose or a test without result, not a measured value. Survivors were counted at the toxicity check; its day is shown where the source gives one, and later deaths do not show.

System: BDF1 mice, Adenocarcinoma 755 s.c., tumor weight T/C
Assay: NCI In Vivo Anticancer Drug Screen. Data for tumor model Adenocarcinoma 755 (subcutaneous) in B6D2F1 (BDF1) mice
Conditions: T/C endpoint: mean tumor weight, schedule: Q01DX011 (ip), higher T/C = larger tumour; for T/C: evaluated on day 12
Method: The antitumor activity of compounds was measured in mice bearing transplantable tumors. Survival or tumor size were measured and the results are expressed as the measurement made in the treated group (T) divided by the measurement made in the vehicle treated control group (C). The tumor model used in this assay is Adenocarcinoma 755 (subcutaneous) in B6D2F1 (BDF1) mice

[1] = dose: 0.88 mg/kg/injection, vehicle: saline
[2] = dose: 1.75 mg/kg/injection, vehicle: saline
[3] = dose: 3.5 mg/kg/injection, vehicle: saline
[4] = dose: 7.0 mg/kg/injection, vehicle: saline
[5] = dose: 14.0 mg/kg/injection, vehicle: saline
[6] = dose: 35.0 mg/kg/injection, vehicle: methylcellulose (MC)

## NC(CC(=O)O)c1cccc(N(CCCl)CCCl)c1 (centres undefined)
dose: 0.75 mg/kg/injection, vehicle: methylcellulose (MC)
  T/C: 51 % of control
dose: 1.5 mg/kg/injection, vehicle: methylcellulose (MC)
  T/C: 59 % of control
dose: 3.0 mg/kg/injection, vehicle: methylcellulose (MC)
  T/C: 40 % of control
dose: 5.7 mg/kg/injection, vehicle: methylcellulose (MC)
  T/C: 46 % of control [9 of 10 alive]
dose: 6.0 mg/kg/injection, vehicle: methylcellulose (MC)
  T/C: 13 % of control
dose: 11.3 mg/kg/injection, vehicle: methylcellulose (MC)
  T/C: 25 % of control
dose: 22.0 mg/kg/injection, vehicle: carboxymethylcellulose (CMC)
  T/C: 3 % of control
dose: 22.5 mg/kg/injection, vehicle: methylcellulose (MC)
  T/C: 6 % of control
dose: 33.0 mg/kg/injection, vehicle: carboxymethylcellulose (CMC)
  T/C: 5 % of control [7 of 10 alive]
dose: 45.0 mg/kg/injection, vehicle: methylcellulose (MC)
  T/C: 2 % of control [9 of 10 alive]

## O[C@H](CNCCCl)[C@H](O)CNCCCl
[1]
  T/C: 65 % of control
dose: 1.75 mg/kg/injection, vehicle: carboxymethylcellulose (CMC)
  T/C: 46 % of control
[2]
  T/C: 60 % of control
dose: 3.5 mg/kg/injection, vehicle: carboxymethylcellulose (CMC)
  T/C: 59 % of control [9 of 10 alive]
[3]
  T/C: 21 % of control
dose: 7.0 mg/kg/injection, vehicle: carboxymethylcellulose (CMC)
  T/C: 58 % of control
[4]
  T/C: 8 % of control [9 of 10 alive]
dose: 14.0 mg/kg/injection, vehicle: carboxymethylcellulose (CMC)
  T/C: 103 % of control [9 of 10 alive]
[5]
  T/C: 3 % of control
dose: 28.0 mg/kg/injection, vehicle: carboxymethylcellulose (CMC)
  T/C: 21 % of control [9 of 10 alive]

## COC1OC(CNCCCl)C2OC(C)(C)OC12 (centres undefined)
dose: 25.0 mg/kg/injection, vehicle: saline
  T/C: 78 % of control
dose: 50.0 mg/kg/injection, vehicle: saline
  T/C: 63 and 70 % of control
dose: 100.0 mg/kg/injection, vehicle: saline
  T/C: 69 and 78 % of control
dose: 200.0 mg/kg/injection, vehicle: saline
  T/C: 53 and 60 % of control
dose: 400.0 mg/kg/injection, vehicle: saline
  T/C: 8 % of control
dose: 800.0 mg/kg/injection, vehicle: saline
  survivor count: 0 of 10

## CC1CNP(=O)(N(CCCl)CCCl)OC1 (centres undefined)
dose: 22.0 mg/kg/injection, vehicle: methylcellulose (MC)
  T/C: 88 % of control
dose: 44.0 mg/kg/injection, vehicle: methylcellulose (MC)
  T/C: 76 % of control [9 of 10 alive]
dose: 88.0 mg/kg/injection, vehicle: methylcellulose (MC)
  T/C: 67 % of control [9 of 10 alive]
dose: 175.0 mg/kg/injection, vehicle: methylcellulose (MC)
  T/C: 23 % of control
dose: 225.0 mg/kg/injection, vehicle: methylcellulose (MC)
  survivor count: 2 of 10
dose: 300.0 mg/kg/injection, vehicle: methylcellulose (MC)
  survivor count: 3 of 10

## O=C(O)/C=C\c1ccccc1N(CCCl)CCCl
dose: 4.4 mg/kg/injection, vehicle: methylcellulose (MC)
  T/C: 51 and 66 % of control
dose: 8.75 mg/kg/injection, vehicle: methylcellulose (MC)
  T/C: 74 [9 of 10 alive] and 99 % of control
dose: 17.5 mg/kg/injection, vehicle: methylcellulose (MC)
  T/C: 35 and 75 % of control [9 of 10 alive]
[6]
  T/C: 14 % of control
  survivor count: 3 of 10

## O=P(Nc1ncccn1)(N1CC1)N1CC1
dose: 3.8 mg/kg/injection, vehicle: saline
  T/C: 53 and 54 % of control
dose: 7.5 mg/kg/injection, vehicle: saline
  T/C: 10 and 24 % of control
dose: 30.0 mg/kg/injection, vehicle: saline
  survivor count: 0 of 10

## CC[C@H](C)[C@@H]1NC(=O)/C(=C(\C)O)C1=O
dose: 12.5 mg/kg/injection, vehicle: carboxymethylcellulose (CMC)
  T/C: 89 % of control
dose: 25.0 mg/kg/injection, vehicle: carboxymethylcellulose (CMC)
  T/C: 59 % of control [9 of 10 alive]
dose: 50.0 mg/kg/injection, vehicle: carboxymethylcellulose (CMC)
  survivor count: 5 of 10
dose: 100.0 mg/kg/injection, vehicle: carboxymethylcellulose (CMC)
  survivor count: 0 of 10

## O=NN1CCN/C1=N\[N+](=O)[O-]
dose: 40.0 mg/kg/injection, vehicle: methylcellulose (MC)
  T/C: 175 % of control
dose: 80.0 mg/kg/injection, vehicle: methylcellulose (MC)
  T/C: 105 % of control
dose: 160.0 mg/kg/injection, vehicle: methylcellulose (MC)
  T/C: 120 % of control [9 of 10 alive]

## O[C@H](CNCCCl)[C@@H](O)CNCCCl
[1]
  T/C: 73 % of control [9 of 10 alive]
[2]
  T/C: 62 % of control
[3]
  T/C: 11 % of control
dose: 4.5 mg/kg/injection, vehicle: distilled water + alcohol
  T/C: 49 % of control
[4]
  T/C: 1 % of control
dose: 9.0 mg/kg/injection, vehicle: distilled water + alcohol
  T/C: 41 % of control [8 of 10 alive]
[5]
  survivor count: 5 of 10
dose: 18.0 mg/kg/injection, vehicle: distilled water + alcohol
  survivor count: 2 of 10

## CC(C)N(CCCl)/N=N/c1nc2nc(N)[nH]c(=O)c2[nH]1
dose: 25.0 mg/kg/injection, vehicle: methylcellulose (MC)
  T/C: 85 % of control [9 of 10 alive]
dose: 50.0 mg/kg/injection, vehicle: methylcellulose (MC)
  T/C: 62 % of control [9 of 10 alive]
dose: 100.0 mg/kg/injection, vehicle: methylcellulose (MC)
  T/C: 41 % of control [7 of 10 alive]
dose: 200.0 mg/kg/injection, vehicle: methylcellulose (MC)
  T/C: 22 % of control [7 of 10 alive]
